Data as given in PubChem BioAssay AID504793 (Drosophila RNAi Screening Center, 2011).
In all, the deposit lists about 23,000 reagents; this is an unselected part of those that have a named target and a result. In the full data, 62 (0.27%) are marked active. 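Calls come from follow-up tests whose scores are not deposited, so confirmed genes may have low counts here; counts are not normalised per plate.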 Raw values are not corrected between plates. Entries without a mark were called inactive. Reagent sequences are not shown.

- Purpose: 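Whole-genome screen for parts of the DNA damage checkpoint at G2/M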 (primary screen)
- System: Drosophila S2R+ cells
- Knock-down reagent: long dsRNA against Drosophila genes, about 0.25 µg dsRNA per well
- Time to read-out: 4 days of dsRNA, then 4 hours of drug before read-out
- Treatment: doxorubicin 0.5 µM for 4 hours to cause double-strand breaks, in cells also given a low, harmless dose of dsRNA against nbs to sensitise the assay
- Measurement: 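Per-well count of mitotic cells stained for phospho-histone H3 after doxorubicin exposure, used as mitotic index; counts are raw and not normalised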
- Reading the numbers: mitotic cells: higher = more cells in mitosis, weaker G2 arrest
- Hit rule: 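a call needs confirmation in secondary tests, with other dsRNAs and a check of mitotic timing without damage, not just a high primary count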
- Meaning of the calls: active = confirmed in follow-up tests; inactive = not confirmed

no.	predicted target	dsRNA	mitotic cells, replicate 1
1	RpS21 (Ribosomal protein S21)	DRSC00833	6
2	RpS21 (Ribosomal protein S21)	DRSC28234	3
3	WDR79 (WD repeat domain 79)	DRSC03159	5
4	PGAP1 (Post-GPI attachment to proteins 1)	DRSC18286	9
5	PGAP1 (Post-GPI attachment to proteins 1)	DRSC28989	3
6	Cmpk (Cytidine/uridine monophosphate kinase 1)	DRSC16643	17
7	Plc21C (Phospholipase C at 21C)	DRSC00773	4
8	Fs (Follistatin)	DRSC06258	2
9	Fs (Follistatin)	DRSC06259	5
10	Fs (Follistatin)	DRSC23507	9
11	Prx4 (Peroxiredoxin 4)	DRSC08668	6
12	Prx4 (Peroxiredoxin 4)	DRSC24543	4
13	CG15071	DRSC06504	5
14	CG15071	DRSC28329	3
15	Cyp309a2 (Cytochrome P450 309a2)	DRSC00526	3
16	Cyp309a2 (Cytochrome P450 309a2)	DRSC30018	8
17	Tsp86D (Tetraspanin 86D)	DRSC15607	3
18	CG7523	DRSC16254	7
19	LpR1 (Lipophorin receptor 1)	DRSC15665	9
20	LpR1 (Lipophorin receptor 1)	DRSC15669	15
21	LpR1 (Lipophorin receptor 1)	DRSC15670	9
22	LpR1 (Lipophorin receptor 1)	DRSC27848	6
23	CG30392	DRSC22341	10
24	trbd (trabid)	DRSC16494	7
25	trbd (trabid)	DRSC27999	7
26	CG17109	DRSC15172	16
27	CG17109	DRSC26637	6
28	Gen (XPG-like endonuclease)	DRSC09679	3
29	CG32606 (retired record)	DRSC19001	11
30	CG32606 (retired record)	DRSC19371	8
31	CG32606 (retired record)	DRSC19372	6
32	CG32606 (retired record)	DRSC23035	11
33	CG32606 (retired record)	DRSC25810	4
34	CG32606 (retired record)	DRSC26998	7
35	CG1143	DRSC08188	7

Part of the list above, reformatted:
| predicted target | dsRNA | mitotic cells, replicate 1 |
| --- | --- | --- |
| CG15071 | DRSC28329 | 3 |
| Cyp309a2 (Cytochrome P450 309a2) | DRSC00526 | 3 |
| Cyp309a2 (Cytochrome P450 309a2) | DRSC30018 | 8 |
| Tsp86D (Tetraspanin 86D) | DRSC15607 | 3 |
| CG7523 | DRSC16254 | 7 |
| LpR1 (Lipophorin receptor 1) | DRSC15665 | 9 |
| LpR1 (Lipophorin receptor 1) | DRSC15669 | 15 |
| LpR1 (Lipophorin receptor 1) | DRSC15670 | 9 |
| LpR1 (Lipophorin receptor 1) | DRSC27848 | 6 |
| CG30392 | DRSC22341 | 10 |
| trbd (trabid) | DRSC16494 | 7 |

Continued:
no.	predicted target	dsRNA	mitotic cells, replicate 1
36	CG9304	DRSC04538	1
37	CG9304	DRSC26210	8
38	Arp53D (Actin-related protein 53D)	DRSC05923	4
39	to (takeout)	DRSC17086	8
40	to (takeout)	DRSC29075	3
41	CG9135	DRSC03144	4
42	CG3552	DRSC10370	2
43	Ance-5	DRSC04055	3
44	Ance-5	DRSC27189	7
45	CG7294	DRSC03041	4
46	CG7294	DRSC25336	7
47	JhI-21 (Juvenile hormone Inducible-21)	DRSC02161	2
48	JhI-21 (Juvenile hormone Inducible-21)	DRSC29181	6
49	CG32945	DRSC12014	3
50	Trx2 (Thioredoxin 2)	DRSC03622	4
51	Trx2 (Thioredoxin 2)	DRSC28288	7
52	Vps16A (Vacuolar protein sorting 16A)	DRSC16422	6
53	sc (scute)	DRSC18830	14
54	sc (scute)	DRSC29307	10
55	atilla	DRSC02971	5
56	atilla	DRSC27408	13
57	Rrp45	DRSC20198	14
58	Rrp45	DRSC29319	5
59	tyf (twenty-four)	DRSC18382	11
60	tyf (twenty-four)	DRSC26245	4
61	Mob4 (MOB kinase activator 4)	DRSC04993	2
62	Mob4 (MOB kinase activator 4)	DRSC29567	6
63	CG15602	DRSC19671	5
64	CG15602	DRSC30101	7
65	Esp (Epidermal stripes and patches)	DRSC16664	10
66	RecQ4 (RecQ4 helicase)	DRSC11265	11
67	RecQ4 (RecQ4 helicase)	DRSC27616	40 (active)
68	CG14694	DRSC14917	8
69	Vml (Vitelline membrane-like)	DRSC17695	17
70	Vml (Vitelline membrane-like)	DRSC18529	10
71	Vml (Vitelline membrane-like)	DRSC28030	1
72	Vml (Vitelline membrane-like)	DRSC29208	8
73	CG32488	DRSC08549	3
74	CG32488	DRSC21537	7
75	SelT (Selenoprotein T)	DRSC02732	9
76	SelT (Selenoprotein T)	DRSC26033	5
